{"source": "patent US9175906B2", "about": "“Drug particles from freezing onto a surface” (BOARD OF REGENTS, THE UNIVERSITY OF TEXAS SYSTEM, priority 2003, dated 2015)", "assay": "USP Dissolution Apparatus Method 2 (in vitro dissolution)", "type": "physicochemical", "conditions": "37° C.; deionized water containing 5.0 wt. % sodium chloride", "description": "• Particle Size Analysis. […] Dissolution obtained using the following method is also referred to herein as “in vitro dissolution”. The dissolution media used varied with the drug substance, and is specified below. The dissolution media was heated to 37° C. and degassed. Dissolution was performed utilizing three vessels per experiment. 11 to 12 mg of drug particles prepared according to the present invention was added to each vessel for dissolution analysis. Dissolution samples were filtered automatically into test tubes containing 0.1 mL of acetonitrile, mixed with a vortex mixer, filtered and analyzed by HPLC. Samples were taken at 2, 5, 10, 15, 20, 30, 60, and 120 minutes. At the 60 min. point the agitation speed was increased to 200 rpm to ensures complete dissolution by 120 minutes. The 120 min. reading is the infinity time reading and the infinity time is used to calculate the potency. […] Crystallinity was determined by X-ray diffraction methods using a Bruker D-8 automated diffractometer. • Atmospheric Freeze Drying (ATMFD). ATMFD was one method of solvent removal used in the following examples. Heat transfer fluid was circulated through the circulating jacket of the heat exchanger, that was used to cool the drying gas then to the jacket of the ATMFD unit. […]", "data": [{"smiles": "COc1ccc2cc([C@H](C)C(=O)O)ccc2c1", "note": "[Naproxen]", "values": [{"measurement": "Dissolution of bulk drug after 2 minutes", "value": 0.29, "unit": "wt %"}]}]}
